# Experimental data as given in PubChem BioAssay AID493014 (National Center for Advancing Translational Sciences (NCATS), 2011).
# The other results are listed elsewhere or left out. Shown are side measurements of this screen, not its main read-out; they come without a call. Most of these compounds were active or inconclusive in the main read-out, so they are no random draw. Potencies come from curve fits of mixed quality, noted in brackets.
# Assay: qHTS Assay to Find Inhibitors of Chronic Active B-Cell Receptor Signaling
# Settings: ABC-DLBCL IkBa-CBG/CBR reporter, luminescence ratio (green luciferase fused to IkBa over red control in TMD8 lymphoma cells), 4 h
# Procedure, shortened: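 Cell line TMD8 (human ABC DLBCL), stably expressing tet-inducible CBG68-IkBa fusion and CBR; IMDM/0.5% FBS; cpd up to 46 uM; dox induction, 4 h, 37C/5% CO2; dual luminescence; green/red ratio; MG132 control.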
# [1] = measured here: CBR red luminescence, cell number
# [2] = measured here: IkBa-CBG green luminescence
SMILES,AC50 [1],AC50 [2]
CCOC(=O)c1c(-n2cnnn2)sc(C)c1C,"35.5 µM [rising, single point]",
CCOC(=O)/C=c1\s/c(=C\c2ccc(C(=O)OC)cc2)c(=O)n1CC(=O)Nc1ccccc1,"6.31 µM [rising, single point]",
CC(=O)N1CCc2cc(S(=O)(=O)NCCC(=O)NCCc3ccccc3)ccc21,"3.26 µM [rising, partial curve, poor fit]",
O=C(Nc1ccc(C(F)(F)F)cc1)c1cc(S(=O)(=O)NCC2COc3ccccc3O2)ccc1F (configuration not stated),"16.4 µM [falling, partial curve, poor fit]",
CCC(C)[C@H](NC(=O)[C@@H]1Cc2c([nH]c3ccccc23)C2c3ccccc3C(=O)N21)C(=O)N1CCC[C@@H]1C(=O)O (some centres not stated),"11.2 µM [falling, partial curve, poor fit]",
CC1CCCN(C(=O)c2ccc(NC(=O)CC3SC(N4CCCC4)=NC3=O)cc2)C1 (configuration not stated),"5.8 µM [rising, full curve]",
CC(C)N(C(=O)CSc1nc2ccccc2n1Cc1ccccc1F)C(C)C,,"18.4 µM [rising, single point]"
CCOC(=O)c1sc(SC)c(C(C)=O)c1C,"23.1 µM [falling, single point]",
O=C(OCCCc1cc2ccccc2c(=O)o1)c1ccco1,"3.26 µM [rising, partial curve, poor fit]",
O=C(Nc1ccc(-n2cc(Br)cn2)cc1)c1ccncc1,"0.251 µM [rising, full curve, poor fit]",
CC(C)c1ccc(-c2csc3nc[nH]c(=O)c23)cc1,"1.41 µM [rising, full curve, poor fit]",
Cc1ncc(C(=O)O)c(C(=O)O)c1N,"3.16 µM [falling, partial curve, poor fit]",
O=C(N/N=C/c1ccc(-c2ccccc2)o1)c1ccccc1O,"3.98 µM [falling, full curve]",
Cc1sc(N/N=C/c2cccs2)nc1-c1ccccc1,"25.9 µM [falling, single point]",
O=c1c(-c2n[nH]c(=S)o2)cccn1Cc1ccccc1,"12.6 µM [falling, partial curve, poor fit]",
Nc1ccc2nc(SCc3ccccc3F)sc2c1,"2.82 µM [rising, partial curve, poor fit]",
Cc1cc(C)[n+]2[nH]c(N)c(N=Nc3ccccc3)c2n1,"20 µM [falling, single point]",
CSc1ccccc1OCc1cc(C(=O)N2CCc3[nH]cnc3C2c2ccccn2)no1 (configuration not stated),"11.2 µM [falling, partial curve]",
CCN(CC)c1ccc(C=Nc2cc(C)cc(C)c2)c(O)c1,"29.1 µM [falling, partial curve, poor fit]",
Cc1cccc2c1NC(=O)/C2=C\C(=O)c1cccs1,"29.1 µM [falling, single point]","29.1 µM [rising, single point]"
COc1ccc(C(=O)Nc2cc3c(cc2C#N)OCO3)cc1S(=O)(=O)NCc1ccco1,"22.4 µM [falling, single point]",

SMILES,AC50 [1],AC50 [2]
Cc1ccc(NC(=O)CCCc2nc3ccccc3c(=O)[nH]2)c(Cl)c1,"13 µM [rising, partial curve, poor fit]",
COc1cc(C=O)ccc1OC(=O)c1ccc(C(C)C)cc1,"31.6 µM [rising, single point]","17.8 µM [falling, partial curve, poor fit]"
c1ccc2c(-c3nc(-c4ccncc4)no3)cccc2c1,"3.55 µM [rising, full curve]",
Cc1cc(NC(=O)CN2C(=O)NC(c3ccccc3)(c3ccc(C)c(C)c3)C2=O)no1 (configuration not stated),"29.1 µM [falling, single point]",
COc1ccc2oc(C(=O)OCc3nnc(-c4ccccc4)o3)c(C)c2c1,"9.2 µM [rising, partial curve]",
O=C(COc1ccc(Cl)cc1Cl)Nc1cccnc1,"10 µM [rising, partial curve]",
O=C(NC1CC(=O)N(c2ccc(Cl)cc2)C1)c1cccs1 (configuration not stated),"35.5 µM [falling, single point]",
Cc1ccnc(NC(=O)C(C)n2cc([N+](=O)[O-])cn2)c1 (configuration not stated),"35.5 µM [falling, single point]",
Cc1ccc(N(Cc2ccccc2)C(=O)c2ccc(S(=O)(=O)N3CCOCC3)cc2)cc1,"32.6 µM [falling, single point]",
Cn1c(=O)[nH]c(=O)c2c1nc(SCCN1CCCCC1)n2Cc1ccccc1,"1.03 µM [falling, full curve]","0.58 µM [rising, full curve, poor fit]"
CC(C)(C)c1cc(NC(=O)COC(=O)c2ccc3c(=O)n4c(nc3c2)CCC4)n(-c2ccccc2)n1,"29.1 µM [falling, single point]",
CCn1c(SCC(=O)Nc2c(C)n(C)n(-c3ccccc3)c2=O)nc2c1c(=O)n(C)c(=O)n2C,"35.5 µM [falling, partial curve, poor fit]",
Cc1cc(C)n(CCOc2ccc(Cl)cc2Cl)n1,"10 µM [rising, partial curve, poor fit]",
N/C(=N\OC(=O)c1cccs1)c1ccccc1,"20.6 µM [falling, single point]",
O=c1c(Cl)c(Nc2cccc(Cl)c2)cnn1-c1nc2ccccc2s1,"14.6 µM [falling, partial curve]",
Cc1ccc(S(=O)(=O)NCc2ccc(C(=O)N3CCN(c4ccc([N+](=O)[O-])cc4)CC3)cc2)cc1,"12.6 µM [falling, partial curve]",
CS(=O)(=O)c1sc(C(=O)NC(=S)Nc2ccc(OC(F)(F)F)cc2)c2c1C=CCC2,"0.2 µM [rising, full curve, poor fit]",
Nc1ccc(N=Nc2ccccc2)c2cccnc12,,"10 µM [falling, partial curve, poor fit]"
O=C(Nc1ccc(N=Nc2ccccc2)c(NC(=O)C2CCCO2)c1)C1CCCO1 (configuration not stated),"20.6 µM [falling, partial curve]","5.17 µM [rising, full curve, poor fit]"
COc1ccc(CN2CCC(CNS(=O)(=O)c3cccc(C(F)(F)F)c3)CC2)cc1,"12.6 µM [falling, partial curve, poor fit]",
CCCc1ccccc1OCCNS(=O)(=O)c1cc2c(cc1C)OCC(=O)N2,"17.8 µM [falling, partial curve, poor fit]",

SMILES,AC50 [1],AC50 [2]
O=C(CSc1nc(=O)n(Cc2ccco2)c2c1CCC2)NCc1ccc(F)cc1,"10 µM [falling, single point]",
COc1ccc(N=Cc2c(O)n(-c3cccc(C)n3)c(=O)c3ccccc23)cc1,"4.61 µM [rising, full curve, poor fit]",
COc1ccc(Cl)c2c1[nH]c1nc(SCc3ccccn3)nnc12,"14.1 µM [falling, single point]",
O=C(N=Nc1c(O)[nH]c2ccccc12)c1ccco1,"4.47 µM [falling, full curve]",
O=C(Nc1ccccc1F)c1ccc(-c2cccc([N+](=O)[O-])c2)o1,"4.47 µM [falling, partial curve]",
O=C(CCc1ccc(O)cc1)c1c(O)cc(O)cc1O,"3.55 µM [rising, partial curve, poor fit]",
CC(C)(C)C(=O)N1CCN(c2nc3c(F)cccc3s2)CC1,"35.5 µM [rising, single point]",
Cc1ccc(NC(=O)CNc2ccc(OC(C)C)cc2)cc1,"1.03 µM [falling, full curve, poor fit]",
Cc1nnc(SCC(=O)Nc2ccccc2)c2ccccc12,"12.6 µM [falling, partial curve]",
COc1ccc(/C=C/C(=O)Oc2cccc(/C=N/NC(=O)c3cccc(F)c3)c2)cc1,"15.8 µM [falling, single point]",
COc1ccccc1N1C(=O)CC(N(O)c2ccccc2)C1=O (configuration not stated),"3.98 µM [falling, partial curve]",
COc1cccc(NC2SC(=O)N(c3ccccc3)C2=O)c1 (configuration not stated),"10.3 µM [falling, partial curve]",
Cc1cc(OC2CCCCC2)nc(NCc2ccccc2)n1,"1.78 µM [falling, full curve]",
O=C(COc1ccc2c(c1)OCO2)NCc1cccs1,"23.1 µM [falling, single point]",
Cc1ccc(N2C(=O)CC(Sc3ccccc3C(=O)O)C2=O)cc1 (configuration not stated),"29.1 µM [falling, single point]",
O=C1CCCc2[nH]c3cccc(/C(=C/c4ccccc4)c4ccccc4)c3c21,"12.6 µM [falling, partial curve, poor fit]",
Cc1cc(NC2CCCC2)n2ncc(-c3ccccc3)c2n1,"12.6 µM [falling, single point]",
O=C(N/N=C/c1ccccc1O)C1CC(=O)N(c2ccc(Cl)cc2)C1 (configuration not stated),"7.08 µM [falling, full curve, poor fit]",
COc1ccc(OC)c(S(=O)(=O)N(C(C)=O)c2ccc3oc(=O)sc3c2)c1,"3.98 µM [falling, full curve, poor fit]",
O=C(O)c1ccc2c(c1)C(=O)N(NC(=O)c1ccc(O)cc1)C2=O,"2.06 µM [falling, full curve]",
COc1ccc(OCc2cc(C(=O)N3CCCC(OC)C3)no2)c2ccccc12 (configuration not stated),"5.62 µM [rising, single point]",

# Whole records, quoted from the list:
# CC(C)(C)C(=O)N1CCN(c2nc3c(F)cccc3s2)CC1 is entered as AC50 [1]: 35.5 µM [rising, single point]
# O=C(Nc1ccccc1F)c1ccc(-c2cccc([N+](=O)[O-])c2)o1 is entered as AC50 [1]: 4.47 µM [falling, partial curve]
# Cc1cc(OC2CCCCC2)nc(NCc2ccccc2)n1 is entered as AC50 [1]: 1.78 µM [falling, full curve]
# O=C(CCc1ccc(O)cc1)c1c(O)cc(O)cc1O is entered as AC50 [1]: 3.55 µM [rising, partial curve, poor fit]
